Experimental data taken from the supplement of paper PMC10382679.
Single values of this set are uncertain.

B1: Rpb7; numbered along this chain (parent)
chain: MFFIKDLSLNITLHPSFFGPRMKQYLKTKLLEEVEGSCTGKFGYILCVLDYDNIDIQRGRILPTDGSAEFNVKYRAVVFKPFKGEVVDGTVVSCSQHGFEVQVGPMKVFVTKHLMPQDLTFNAGSNPPSYQSSEDVITIKSRIRVKIEGCISQVSSIHAIGSIKEDYLGAI

What was measured:
[1] = variants of: B1; experiment: log2 fold change of mutant abundance, UV-irradiated vs unirradiated; higher = more UV resistant (enriched after UV); conditions: with Saccharomyces cerevisiae rad7Δ rad26Δ; UV dose (J/m2): 10; genetic background: rad7Δ rad26Δ rpb7Δ + plasmid RPB7 library; outgrowth: 10 cell divisions
[2] = variants of: B1; experiment: NOISeq theta enrichment statistic, UV-irradiated vs unirradiated (dimensionless); higher = more UV resistant (enriched after UV); conditions: with Saccharomyces cerevisiae rad7Δ rad26Δ; UV dose (J/m2): 10; genetic background: rad7Δ rad26Δ rpb7Δ + plasmid RPB7 library; outgrowth: 10 cell divisions

Variant	log2 fold change of mutant abundance [1]	NOISeq theta enrichment statistic [2]
E35I	-0.566	-0.276
E35V	0.0618	0.286
E35R	-0.924	-0.829
G19F	-0.398	-0.258
L49Q	0.312	0.682
F121G	-0.471	-0.293
F121H	-0.118	-0.063
D6S	0.256	0.248
A170T	-0.152	-0.406
A170S	-0.149	-0.232
K23E	-0.0964	-0.378
S95V	-0.0487	-0.0822
S95H	-0.0856	-0.0725
S95M	0.296	0.215
S95Y	-0.0416	-0.373
P20S	0.098	0.267
P20R	0.131	0.166
Y130I	-0.0677	-0.0646
Y130C	0.0383	0.0777
F70L	0.097	0.417
I54K	0.223	0.563
I54V	0.0324	0.0744
D135R	-0.401	-0.268
K146S	0.64	0.354

Variant	log2 fold change of mutant abundance [1]	NOISeq theta enrichment statistic [2]
K146M	0.0923	0.0413
T90P	-0.0787	-0.291
K112Q	-0.159	-0.29
K112P	-0.419	-0.293
K112R	-0.0955	-0.506
E85H	0.0989	0.0974
E85N	0.0594	0.0647
F109I	-0.123	-0.683
F109H	-0.546	-0.39
A123W	-0.0975	-0.0647
D55R	-0.559	-0.238
F82W	0.159	0.126
F82T	-0.324	-0.221
F82N	0.000464	0.000361
S133H	0.348	0.266
S152G	-0.0242	-0.0765
K107G	0.099	0.12
K107D	0.143	0.139
K107N	0.0991	0.53
S156T	-0.0835	-0.32
S8M	-0.599	-0.352
S8P	0.334	0.761
S8F	-0.75	-0.367
S8E	-0.518	-0.322

Variant	log2 fold change of mutant abundance [1]	NOISeq theta enrichment statistic [2]
M106K	-0.0111	-0.0321
M106W	0.0482	0.042
M106N	0.0348	0.0497
M106L	0.213	0.947
T138R	-0.552	-0.335
T138Y	-0.193	-0.0987
E100Y	-0.0605	-0.0627
E100Q	0.0221	0.0514
E100S	-0.269	-0.241
E100T	0.0207	0.0227
C150N	0.0895	0.0437
N53S	0.0653	0.18
N53P	0.179	0.123
I163F	0.135	0.309
R60N	-1	-0.524
Q102S	-0.19	-0.118
Q102H	0.133	0.886
Q102A	0.176	0.207
V101L	0.029	0.131
V101D	0.0616	0.0634
V101N	0.306	0.202
K83D	0.234	0.203
G40A	-0.414	-0.542
G40D	-0.872	-0.993

Variant	log2 fold change of mutant abundance [1]	NOISeq theta enrichment statistic [2]
D50G	0.13	0.284
D50T	-0.0818	-0.106
D50A	0.2	0.363
L9A	-1.17	-0.446
L9I	0.0636	0.122
V72M	-0.0371	-0.153
L13H	-0.138	-0.321
L13P	0.0947	0.178
E165K	-0.492	-0.481
E165A	-0.0873	-0.0757
I137K	0.844	0.472
V77F	0.0711	0.0798
V77R	-0.0632	-0.0477
V77L	0.0115	0.0654
V77S	-0.265	-0.205
G98M	0.198	0.168
G59M	-0.0188	-0.00829
K29Q	0.36	0.504
K29L	-0.186	-0.119
K29Y	-0.0818	-0.0615
L119Q	0.587	0.335
L119V	-0.0309	-0.0779
V136D	0.516	1.13
V136E	0.595	0.457

Variant	log2 fold change of mutant abundance [1]	NOISeq theta enrichment statistic [2]
Q131N	0.639	0.32
Q131Y	0.262	0.113
D88H	0.0899	0.13
D88C	-0.399	-0.325
G104D	0.00947	0.0428
Q117P	0.0357	0.0777
V34G	0.0248	0.0288
R144T	0.22	0.226
Y25D	-0.0556	-0.0548
Y25N	0.241	0.722
K27E	0.0342	0.123
F99P	0.0648	0.0431
F99M	-0.0712	-0.0729
F99C	-0.0108	-0.0513
P81N	-0.185	-0.132
Q153S	0.279	0.229
S132C	-0.0017	-0.00592
S132I	-0.0275	-0.0435
S67C	0.00686	0.0105
I157Y	-0.0665	-0.0495
I157L	-0.198	-0.249
G89H	0.208	0.118
G89K	-0.353	-0.321
I45F	-0.122	-0.279

Variant	log2 fold change of mutant abundance [1]	NOISeq theta enrichment statistic [2]
K164M	0.322	0.109
Y44N	0.174	0.346
Y44L	-0.148	-0.122
L114S	0.0325	0.0412
L114P	-0.232	-0.512
Q24N	0.11	0.106
Q24P	-0.168	-0.194
Q24I	-1.19	-0.591
G43L	0.124	0.0863
H113V	0.798	0.548
Y51Q	-0.395	-0.15
Y51D	-0.0475	-0.0729
Y51S	0.0769	0.132
L62I	-0.0668	-0.0534
D52H	0.0665	0.0681
D52Y	-0.0231	-0.0527
D52G	0.0493	0.164
L168R	0.225	0.175
A76V	-0.0211	-0.0768
A76E	0.0524	0.049
A76R	-0.129	-0.11
V103H	0.0184	0.0152
V103L	0.0316	0.13
N10Y	-0.111	-0.287

Variant	log2 fold change of mutant abundance [1]	NOISeq theta enrichment statistic [2]
R75I	0.0868	0.392
R75T	0.0672	0.11
R75E	0.105	0.133
R75L	-0.079	-0.066
H97D	-0.00906	-0.0582
F79I	0.103	0.266
C47W	0.263	0.33
Y74A	-0.0103	-0.00718
I160Y	-0.189	-0.139
G149E	1.6	0.927
G149S	1.39	3.02
L30V	0.202	0.24
L30Q	0.179	0.251
L30T	-0.131	-0.0676
I11N	0.27	0.445
V145S	0.0292	0.0222
G124Y	-0.582	-0.384
V91A	-0.153	-0.364
V91S	0.129	0.166
I139F	1.02	0.59
V110D	-0.0295	-0.021
V110K	-0.636	-0.33
K5R	0.168	0.547
K5D	-0.245	-0.0739

Quoted from the listing for reference:
Variant	log2 fold change of mutant abundance [1]	NOISeq theta enrichment statistic [2]
C47W	0.263	0.33
Y74A	-0.0103	-0.00718
I160Y	-0.189	-0.139
G149E	1.6	0.927
G149S	1.39	3.02
L30V	0.202	0.24
L30Q	0.179	0.251

More entries:

Variant	log2 fold change of mutant abundance [1]	NOISeq theta enrichment statistic [2]
F3G	-0.166	-0.127
F3L	0.0494	0.123
P105K	0.274	0.291
P105G	0.58	0.403
E33D	0.0254	0.104
L31S	0.0828	0.234
L31T	-0.753	-0.415
I151N	0.247	0.808
R142E	-0.728	-0.411
Y167L	-0.287	-0.224
Y167K	-0.808	-0.346
S129V	-0.163	-0.121
S129H	-0.478	-0.265
G169E	-0.535	-0.296
S162G	0.0683	0.166
S162R	-0.299	-0.655
F42I	0.272	0.922
C94W	-0.0816	-0.177
C94S	-0.0804	-0.388
S93P	0.00476	0.0101
S93C	0.391	0.288
S93Y	-0.0257	-0.0495
S93N	-0.188	-0.171
K80I	-0.0703	-0.334

Variant	log2 fold change of mutant abundance [1]	NOISeq theta enrichment statistic [2]
T39A	0.0247	0.0994
T39E	1.19	0.502
P128K	-0.012	-0.00674
Q57T	0.127	0.123
Q57R	0.0598	0.237
Q57E	-0.0218	-0.0254
R21P	-0.252	-0.3
R21E	-0.429	-0.38
T64P	-0.0417	-0.101
T64A	-0.0215	-0.107
F2I	0.0797	0.164
H158N	-0.227	-0.576
H158D	-0.664	-0.711
V154S	0.0392	0.0277
V154I	0.449	0.265
G84R	-0.0489	-0.106
E69M	-0.11	-0.0749
E69N	0.376	0.25
K41Y	0.123	0.0683
K41N	-0.148	-0.575
D118A	0.0676	0.129
D118G	0.00739	0.0268
D118Y	-0.13	-0.281
D118Q	0.159	0.0994

Variant	log2 fold change of mutant abundance [1]	NOISeq theta enrichment statistic [2]
D118H	-0.0822	-0.0953
T12Y	-0.0824	-0.0367
T12I	0.135	0.425
N71K	-0.24	-0.626
N126Q	-0.0586	-0.0522
F18H	-0.00718	-0.00406
F18I	-0.0514	-0.202
S141K	0.00635	0.00545
S141N	0.0119	0.0274
Q96E	0.0229	0.115
Q96R	0.0135	0.101
M115C	-0.426	-0.214
G36S	-0.0657	-0.116
G36D	-0.157	-0.256
G36F	-0.0212	-0.0172

Given field by field: entries from further up
D50T
  log2 fold change of mutant abundance [1]: -0.0818
  NOISeq theta enrichment statistic [2]: -0.106
V136D
  log2 fold change of mutant abundance [1]: 0.516
  NOISeq theta enrichment statistic [2]: 1.13
K164M
  log2 fold change of mutant abundance [1]: 0.322
  NOISeq theta enrichment statistic [2]: 0.109
D52G
  log2 fold change of mutant abundance [1]: 0.0493
  NOISeq theta enrichment statistic [2]: 0.164
